Test results reported in the supplement of paper PMC10849652.
The other results are listed elsewhere or left out.

Amino acid sequences for entries named in this document (tags omitted). A change or cut given only in a name is not applied to a line headed by its entry.
UniProt Q8IZN3: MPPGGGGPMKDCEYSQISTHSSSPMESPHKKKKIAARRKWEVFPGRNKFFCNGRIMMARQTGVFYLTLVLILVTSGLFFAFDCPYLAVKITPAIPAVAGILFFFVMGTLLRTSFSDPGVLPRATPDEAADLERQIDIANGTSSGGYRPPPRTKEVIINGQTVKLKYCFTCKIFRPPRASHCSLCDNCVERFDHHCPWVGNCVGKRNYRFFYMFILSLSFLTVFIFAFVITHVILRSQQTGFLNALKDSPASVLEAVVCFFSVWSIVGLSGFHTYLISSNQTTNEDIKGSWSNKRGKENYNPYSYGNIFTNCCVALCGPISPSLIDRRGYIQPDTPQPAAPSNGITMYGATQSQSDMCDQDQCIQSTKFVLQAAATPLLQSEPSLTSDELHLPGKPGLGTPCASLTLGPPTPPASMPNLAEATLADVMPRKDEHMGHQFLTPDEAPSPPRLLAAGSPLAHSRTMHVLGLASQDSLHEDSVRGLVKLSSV
UniProt P16989, whole entry, looked up: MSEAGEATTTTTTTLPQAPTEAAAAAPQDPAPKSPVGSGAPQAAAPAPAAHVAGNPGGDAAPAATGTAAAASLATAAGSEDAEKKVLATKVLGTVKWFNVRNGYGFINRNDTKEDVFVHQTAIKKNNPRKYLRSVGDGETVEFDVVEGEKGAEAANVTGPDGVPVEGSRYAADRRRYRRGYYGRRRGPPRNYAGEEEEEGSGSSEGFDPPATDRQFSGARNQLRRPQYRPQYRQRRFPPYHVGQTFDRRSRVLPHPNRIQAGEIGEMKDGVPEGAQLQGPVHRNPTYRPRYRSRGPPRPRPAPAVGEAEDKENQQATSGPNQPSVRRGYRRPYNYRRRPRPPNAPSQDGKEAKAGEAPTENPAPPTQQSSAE
UniProt Q8IWT0: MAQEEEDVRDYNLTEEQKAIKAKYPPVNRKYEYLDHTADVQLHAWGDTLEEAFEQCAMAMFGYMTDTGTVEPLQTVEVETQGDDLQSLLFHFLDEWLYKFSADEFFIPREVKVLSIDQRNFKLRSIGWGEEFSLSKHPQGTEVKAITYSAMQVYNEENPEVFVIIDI
UniProt O43670: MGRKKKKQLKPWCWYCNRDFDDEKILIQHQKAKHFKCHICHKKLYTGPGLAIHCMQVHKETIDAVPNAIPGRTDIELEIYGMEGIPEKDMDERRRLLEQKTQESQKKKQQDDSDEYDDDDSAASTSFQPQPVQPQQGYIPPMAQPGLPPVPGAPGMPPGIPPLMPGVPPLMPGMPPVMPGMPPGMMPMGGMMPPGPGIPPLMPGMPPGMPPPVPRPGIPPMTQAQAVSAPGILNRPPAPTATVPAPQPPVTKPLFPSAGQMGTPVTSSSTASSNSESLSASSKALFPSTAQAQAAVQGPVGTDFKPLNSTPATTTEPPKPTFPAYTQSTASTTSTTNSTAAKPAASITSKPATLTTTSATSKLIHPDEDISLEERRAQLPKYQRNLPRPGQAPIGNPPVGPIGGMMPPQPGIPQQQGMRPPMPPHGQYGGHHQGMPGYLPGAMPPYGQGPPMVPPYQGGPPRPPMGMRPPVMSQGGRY
UniProt Q9Y2Z4: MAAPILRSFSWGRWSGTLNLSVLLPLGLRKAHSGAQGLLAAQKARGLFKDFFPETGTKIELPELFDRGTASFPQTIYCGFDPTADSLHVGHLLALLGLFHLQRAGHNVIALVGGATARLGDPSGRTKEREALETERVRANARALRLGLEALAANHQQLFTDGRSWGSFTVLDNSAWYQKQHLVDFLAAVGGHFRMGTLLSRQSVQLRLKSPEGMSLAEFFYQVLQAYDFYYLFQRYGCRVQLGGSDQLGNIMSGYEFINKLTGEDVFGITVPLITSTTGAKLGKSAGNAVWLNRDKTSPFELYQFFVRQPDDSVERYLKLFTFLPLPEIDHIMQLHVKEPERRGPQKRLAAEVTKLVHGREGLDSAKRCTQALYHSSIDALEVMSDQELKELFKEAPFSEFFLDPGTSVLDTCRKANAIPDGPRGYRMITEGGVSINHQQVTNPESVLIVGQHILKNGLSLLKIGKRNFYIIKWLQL
UniProt Q9C0E2: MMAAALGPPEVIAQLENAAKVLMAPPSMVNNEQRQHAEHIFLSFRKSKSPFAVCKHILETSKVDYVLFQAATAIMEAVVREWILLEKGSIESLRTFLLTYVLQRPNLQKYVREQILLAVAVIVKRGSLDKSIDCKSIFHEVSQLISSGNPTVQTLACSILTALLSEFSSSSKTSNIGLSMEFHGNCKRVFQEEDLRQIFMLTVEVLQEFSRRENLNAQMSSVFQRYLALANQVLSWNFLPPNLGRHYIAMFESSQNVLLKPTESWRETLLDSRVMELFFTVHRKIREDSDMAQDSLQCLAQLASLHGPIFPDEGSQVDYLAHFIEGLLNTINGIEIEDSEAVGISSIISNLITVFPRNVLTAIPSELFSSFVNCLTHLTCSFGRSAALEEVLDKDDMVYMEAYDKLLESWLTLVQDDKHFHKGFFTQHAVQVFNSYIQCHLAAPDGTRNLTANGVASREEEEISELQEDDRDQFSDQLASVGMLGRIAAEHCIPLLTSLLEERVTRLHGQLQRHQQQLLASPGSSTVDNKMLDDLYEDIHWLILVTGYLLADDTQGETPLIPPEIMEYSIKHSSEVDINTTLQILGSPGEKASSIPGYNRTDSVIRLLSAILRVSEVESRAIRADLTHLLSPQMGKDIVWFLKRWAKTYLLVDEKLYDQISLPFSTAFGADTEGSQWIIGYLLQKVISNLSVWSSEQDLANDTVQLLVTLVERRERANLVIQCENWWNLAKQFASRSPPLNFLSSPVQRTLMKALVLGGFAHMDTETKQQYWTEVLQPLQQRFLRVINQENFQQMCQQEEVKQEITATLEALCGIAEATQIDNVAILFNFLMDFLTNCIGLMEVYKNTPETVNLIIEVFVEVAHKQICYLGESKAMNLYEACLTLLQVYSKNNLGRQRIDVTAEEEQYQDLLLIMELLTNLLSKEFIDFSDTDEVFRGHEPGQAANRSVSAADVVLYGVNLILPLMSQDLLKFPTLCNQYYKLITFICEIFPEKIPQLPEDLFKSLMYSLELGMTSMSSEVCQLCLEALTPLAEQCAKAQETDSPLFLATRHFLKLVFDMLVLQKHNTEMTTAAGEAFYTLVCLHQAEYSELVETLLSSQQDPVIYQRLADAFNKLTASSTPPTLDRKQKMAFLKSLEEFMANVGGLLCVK
UniProt P17028: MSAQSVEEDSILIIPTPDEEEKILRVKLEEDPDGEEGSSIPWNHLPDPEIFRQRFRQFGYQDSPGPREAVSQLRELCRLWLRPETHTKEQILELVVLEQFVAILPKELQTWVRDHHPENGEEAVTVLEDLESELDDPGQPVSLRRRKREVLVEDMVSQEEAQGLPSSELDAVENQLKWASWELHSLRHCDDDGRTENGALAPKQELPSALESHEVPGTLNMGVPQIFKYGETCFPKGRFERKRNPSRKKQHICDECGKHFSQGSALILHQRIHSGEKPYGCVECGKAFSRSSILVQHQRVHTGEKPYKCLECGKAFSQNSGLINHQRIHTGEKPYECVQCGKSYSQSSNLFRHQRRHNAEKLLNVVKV
UniProt Q04917: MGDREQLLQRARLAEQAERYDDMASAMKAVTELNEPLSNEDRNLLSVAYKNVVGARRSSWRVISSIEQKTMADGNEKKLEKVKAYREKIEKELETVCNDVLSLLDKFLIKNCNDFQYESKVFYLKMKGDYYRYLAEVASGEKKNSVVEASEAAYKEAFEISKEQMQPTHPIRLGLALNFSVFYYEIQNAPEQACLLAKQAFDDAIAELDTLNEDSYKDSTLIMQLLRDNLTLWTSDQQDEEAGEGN
UniProt Q96K21: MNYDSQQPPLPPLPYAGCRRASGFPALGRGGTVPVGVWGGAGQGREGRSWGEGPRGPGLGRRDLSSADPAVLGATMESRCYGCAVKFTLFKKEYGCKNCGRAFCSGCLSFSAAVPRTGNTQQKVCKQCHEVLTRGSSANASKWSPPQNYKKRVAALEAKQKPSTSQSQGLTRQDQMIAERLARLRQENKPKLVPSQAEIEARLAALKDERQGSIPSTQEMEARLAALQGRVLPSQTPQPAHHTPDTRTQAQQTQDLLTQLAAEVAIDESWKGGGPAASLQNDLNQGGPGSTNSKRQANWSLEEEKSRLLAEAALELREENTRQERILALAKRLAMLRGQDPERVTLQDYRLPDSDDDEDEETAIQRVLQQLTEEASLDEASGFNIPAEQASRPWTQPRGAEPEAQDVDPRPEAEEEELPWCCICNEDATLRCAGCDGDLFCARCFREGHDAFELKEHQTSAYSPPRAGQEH
UniProt Q9NRH1: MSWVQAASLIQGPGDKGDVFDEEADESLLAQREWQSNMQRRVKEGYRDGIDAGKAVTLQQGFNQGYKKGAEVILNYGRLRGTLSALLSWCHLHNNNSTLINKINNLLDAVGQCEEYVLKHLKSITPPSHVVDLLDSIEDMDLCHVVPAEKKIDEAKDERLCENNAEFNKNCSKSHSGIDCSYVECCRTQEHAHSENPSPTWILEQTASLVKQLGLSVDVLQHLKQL
UniProt O43542: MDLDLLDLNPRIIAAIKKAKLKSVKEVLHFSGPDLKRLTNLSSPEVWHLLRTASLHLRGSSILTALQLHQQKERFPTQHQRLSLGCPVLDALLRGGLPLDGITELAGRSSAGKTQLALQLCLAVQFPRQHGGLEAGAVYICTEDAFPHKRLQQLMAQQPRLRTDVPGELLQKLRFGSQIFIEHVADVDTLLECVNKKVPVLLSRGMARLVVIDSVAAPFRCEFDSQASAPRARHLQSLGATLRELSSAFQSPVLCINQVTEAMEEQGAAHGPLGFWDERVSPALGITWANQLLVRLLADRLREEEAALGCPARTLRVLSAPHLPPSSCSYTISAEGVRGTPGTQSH
UniProt Q8NF64: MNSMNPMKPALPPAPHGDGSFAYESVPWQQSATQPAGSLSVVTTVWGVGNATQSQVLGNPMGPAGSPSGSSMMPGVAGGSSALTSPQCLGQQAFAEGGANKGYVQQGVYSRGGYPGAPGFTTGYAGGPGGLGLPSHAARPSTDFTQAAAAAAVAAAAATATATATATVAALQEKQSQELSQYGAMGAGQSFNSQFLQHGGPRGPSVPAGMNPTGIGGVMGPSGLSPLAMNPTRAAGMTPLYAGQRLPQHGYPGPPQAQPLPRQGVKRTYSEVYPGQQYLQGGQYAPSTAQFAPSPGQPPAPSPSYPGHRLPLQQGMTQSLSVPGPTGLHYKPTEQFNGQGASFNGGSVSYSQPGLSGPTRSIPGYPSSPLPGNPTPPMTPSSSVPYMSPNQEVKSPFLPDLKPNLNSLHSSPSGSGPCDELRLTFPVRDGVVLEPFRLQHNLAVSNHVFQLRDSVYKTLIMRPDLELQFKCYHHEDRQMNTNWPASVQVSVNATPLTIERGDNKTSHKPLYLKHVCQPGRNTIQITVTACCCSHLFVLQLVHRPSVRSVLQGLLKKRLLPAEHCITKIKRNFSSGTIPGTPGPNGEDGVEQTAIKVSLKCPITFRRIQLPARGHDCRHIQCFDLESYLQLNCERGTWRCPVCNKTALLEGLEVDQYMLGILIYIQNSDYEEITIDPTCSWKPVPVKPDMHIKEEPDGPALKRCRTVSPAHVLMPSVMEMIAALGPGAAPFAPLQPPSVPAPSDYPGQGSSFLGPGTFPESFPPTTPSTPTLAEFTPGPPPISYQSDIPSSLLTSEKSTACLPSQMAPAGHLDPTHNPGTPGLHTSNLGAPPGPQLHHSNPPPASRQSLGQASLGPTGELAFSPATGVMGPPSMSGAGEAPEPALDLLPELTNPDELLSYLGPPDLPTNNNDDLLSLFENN
UniProt Q13426: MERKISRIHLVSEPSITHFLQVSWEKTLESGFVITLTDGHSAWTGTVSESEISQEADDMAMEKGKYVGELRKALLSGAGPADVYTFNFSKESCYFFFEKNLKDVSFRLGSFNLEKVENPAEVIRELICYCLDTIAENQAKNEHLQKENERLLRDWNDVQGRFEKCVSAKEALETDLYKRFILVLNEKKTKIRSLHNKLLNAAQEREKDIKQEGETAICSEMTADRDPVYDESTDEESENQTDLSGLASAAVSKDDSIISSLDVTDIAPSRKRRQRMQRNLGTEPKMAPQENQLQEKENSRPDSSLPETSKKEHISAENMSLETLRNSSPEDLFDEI
UniProt A8MPS7: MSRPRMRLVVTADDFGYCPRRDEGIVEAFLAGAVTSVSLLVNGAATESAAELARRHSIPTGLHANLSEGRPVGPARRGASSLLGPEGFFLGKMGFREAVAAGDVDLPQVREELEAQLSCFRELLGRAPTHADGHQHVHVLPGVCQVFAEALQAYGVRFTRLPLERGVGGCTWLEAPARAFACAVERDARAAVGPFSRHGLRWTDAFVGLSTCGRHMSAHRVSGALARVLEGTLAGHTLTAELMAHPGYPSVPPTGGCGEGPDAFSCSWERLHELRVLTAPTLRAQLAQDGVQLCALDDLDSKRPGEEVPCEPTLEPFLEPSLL
UniProt Q8IY57: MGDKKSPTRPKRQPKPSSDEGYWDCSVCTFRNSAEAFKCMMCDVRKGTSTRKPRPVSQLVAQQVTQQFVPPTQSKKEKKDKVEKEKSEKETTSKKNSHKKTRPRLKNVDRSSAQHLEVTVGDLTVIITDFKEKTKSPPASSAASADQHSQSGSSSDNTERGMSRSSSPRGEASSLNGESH

What was measured:
Assay in all cases: log2 fold change, soluble protein after heating vs DMSO (PISA); higher = thermal stabilisation; K562 cells, 10 uM, 30 min; active = over 0.2 and 3.5 SD of the protein, either way, in both replicates (recomputed)
saracatinib = compound: CN1CCN(CCOc2cc(OC3CCOCC3)c3c(Nc4c(Cl)ccc5c4OCO5)ncnc3c2)CC1 [saracatinib]
Summary of the method: (§1)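 K562 cells at 2×10^6 cells/mL were exposed to 10 μM compound for 30 min, then aliquots were heated for 3 min across 48°C-58°C, pooled, and extracted in PBS containing 0.5% NP-40 at 4°C. The supernatant after 21,000xg for 90 min was taken as soluble protein and measured by TMTpro 16plex LC-MS/MS with channel sums equalised. Thermal stability is reported relative to control samples, with values from duplicates. Fold changes are given on a log2 scale.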

sotrastaurin = compound: CN1CCN(c2nc(C3=C(c4c[nH]c5ccccc45)C(=O)NC3=O)c3ccccc3n2)CC1 [sotrastaurin]
Summary of the method: as §1

alvocidib = compound: CN1CC[C@H](c2c(O)cc(O)c3c(=O)cc(-c4ccccc4Cl)oc23)[C@H](O)C1 [alvocidib]
Summary of the method: as §1

Tubastatin A = compound: CN1CCc2c(c3ccccc3n2Cc2ccc(C(=O)NO)cc2)C1 [Tubastatin A]
Summary of the method: as §1

[1] = compound: CNC(=O)C1=CC=CC=C1NC2=NC(=NC=C2Cl)NC3=C(C=C(C=C3)N4CCOCC4)OC
Summary of the method: as §1

defactinib = compound: CNC(=O)c1ccc(Nc2ncc(C(F)(F)F)c(NCc3nccnc3N(C)S(C)(=O)=O)n2)cc1 [defactinib]
Summary of the method: as §1

rucaparib = compound: CNCc1ccc(-c2[nH]c3cc(F)cc4c3c2CCNC4=O)cc1 [rucaparib]
Summary of the method: as §1

[2] = compound: CNc1nc(-c2ccc3c(N)n[nH]c3c2)cc(N2C[C@@H](C(=O)NC3CCCCC3)CC[C@H]2C)n1
Summary of the method: as §1

encorafenib = compound: COC(=O)N[C@@H](C)CNc1nccc(-c2cn(C(C)C)nc2-c2cc(Cl)cc(NS(C)(=O)=O)c2F)n1 [encorafenib]
Summary of the method: as §1

[3] = compound: COC(=O)[C@H](CCSC)NC(=O)C1=C(C=C(C=C1)NC[C@H](CS)N)C2=CC=CC=C2
Summary of the method: as §1

Measured: log2 fold change

ZDHHC14 (UniProt Q8IZN3)
inactive: saracatinib 0.054 | sotrastaurin 0.023 | alvocidib -0.045 | Tubastatin A -0.157 | [1] -0.062 | defactinib -0.126 | rucaparib -0.059 | [2] -0.076 | encorafenib 0.126 | [3] -0.049

YBX3 isoform 2 (UniProt P16989)
inactive: saracatinib 0.03 | sotrastaurin 0.065 | alvocidib 0.342 | Tubastatin A 0.006 | [1] 0.039 | defactinib 0.283 | rucaparib 0.258 | [2] 0.071 | encorafenib -0.088 | [3] 0.166

ZC3HAV1 (UniProt Q7Z2W4)
inactive: saracatinib -0.127 | sotrastaurin -0.077 | alvocidib 0.245 | Tubastatin A 0.024 | [1] -0.05 | defactinib 0.066 | rucaparib 0.581 | [2] 0.122 | encorafenib 0.231 | [3] 0.011

ZBTB8OS (UniProt Q8IWT0)
inactive: saracatinib -0.007 | sotrastaurin 0.029 | alvocidib 0.124 | Tubastatin A -0.042 | [1] 0.038 | defactinib -0.053 | rucaparib -0.133 | [2] -0.061 | encorafenib 0.046 | [3] 0.034

ZNF207 isoform 2 (UniProt O43670)
inactive: saracatinib -0.133 | sotrastaurin -0.057 | alvocidib 0.016 | Tubastatin A 0.013 | [1] 0.06 | defactinib -0.083 | rucaparib -0.078 | [2] 0.054 | encorafenib 0.005 | [3] -0.114

YARS2 (UniProt Q9Y2Z4)
inactive: saracatinib -0.098 | sotrastaurin -0.132 | alvocidib -0.096 | Tubastatin A -0.114 | [1] 0.005 | defactinib -0.24 | rucaparib 0.166 | [2] 0.09 | encorafenib -0.005 | [3] 0.03

XPO4 (UniProt Q9C0E2)
inactive: saracatinib 0.063 | sotrastaurin -0.004 | alvocidib -0.009 | Tubastatin A -0.036 | [1] 0.012 | defactinib -0.046 | rucaparib -0.02 | [2] -0.043 | encorafenib 0.007 | [3] 0.006

ZNF24 (UniProt P17028)
inactive: saracatinib 0.007 | sotrastaurin 0.051 | alvocidib 0.031 | Tubastatin A 0.134 | [1] 0.021 | defactinib -0.022 | rucaparib 0.161 | [2] 0.061 | encorafenib 0.058 | [3] 0.053

ZNF207 isoform 4 (UniProt O43670)
inactive: saracatinib -0.067 | sotrastaurin 0.031 | alvocidib -0.02 | Tubastatin A -0.001 | [1] -0.002 | defactinib 0.015 | rucaparib 0.052 | [2] -0.031 | encorafenib 0.031 | [3] 0.038

YWHAH (UniProt Q04917)
inactive: saracatinib 0.028 | sotrastaurin 0.02 | alvocidib 0.008 | Tubastatin A -0.034 | [1] 0.008 | defactinib -0.047 | rucaparib -0.038 | [2] 0.038 | encorafenib -0.007 | [3] 0.013

YME1L1 (UniProt Q96TA2)
inactive: saracatinib 0.004 | sotrastaurin 0.032 | alvocidib 0.005 | Tubastatin A -0.043 | [1] -0.041 | defactinib 0.006 | rucaparib 0.004 | [2] -0.028 | encorafenib 0.009 | [3] 0.035

ZFYVE19 (UniProt Q96K21)
inactive: saracatinib 0.079 | sotrastaurin 0.039 | alvocidib 0.013 | Tubastatin A -0.012 | [1] -0.037 | defactinib 0.037 | rucaparib -0.001 | [2] -0.048 | encorafenib -0.011 | [3] 0.071

XPO7 (UniProt E7ESC6)
inactive: saracatinib 0.043 | sotrastaurin -0.001 | alvocidib -0.083 | Tubastatin A -0.073 | [1] -0.001 | defactinib -0.071 | rucaparib -0.022 | [2] -0.024 | encorafenib 0.014 | [3] -0.016

ZMPSTE24 (UniProt O75844)
inactive: saracatinib 0.005 | sotrastaurin 0.025 | alvocidib 0.006 | Tubastatin A -0.022 | [1] 0.009 | defactinib -0.02 | rucaparib -0.055 | [2] 0.006 | encorafenib 0.002 | [3] -0.007

YAE1 (UniProt Q9NRH1)
active: alvocidib 0.249
inactive: saracatinib 0.025 | sotrastaurin 0.074 | Tubastatin A -0.018 | [1] -0.002 | defactinib 0.026 | rucaparib -0.078 | [2] -0.092 | encorafenib 0.007 | [3] 0.059

XRCC3 (UniProt O43542)
inactive: saracatinib 0.156 | sotrastaurin -0.005 | alvocidib -0.055 | Tubastatin A -0.036 | [1] -0.117 | defactinib -0.03 | rucaparib 0.063 | [2] 0.003 | encorafenib -0.011 | [3] -0.089

ZC3H15 (UniProt Q8WU90)
inactive: saracatinib -0.027 | sotrastaurin 0.058 | alvocidib 0.055 | Tubastatin A 0.014 | [1] -0.006 | defactinib 0.085 | rucaparib 0.092 | [2] 0.016 | encorafenib 0.035 | [3] 0.022

Reprinted at random: two records from the list
ZMPSTE24 (UniProt O75844)
inactive: saracatinib 0.005 | sotrastaurin 0.025 | alvocidib 0.006 | Tubastatin A -0.022 | [1] 0.009 | defactinib -0.02 | rucaparib -0.055 | [2] 0.006 | encorafenib 0.002 | [3] -0.007

XPO4 (UniProt Q9C0E2)
inactive: saracatinib 0.063 | sotrastaurin -0.004 | alvocidib -0.009 | Tubastatin A -0.036 | [1] 0.012 | defactinib -0.046 | rucaparib -0.02 | [2] -0.043 | encorafenib 0.007 | [3] 0.006

Further results follow.

ZMIZ2 (UniProt Q8NF64)
inactive: saracatinib 0.127 | sotrastaurin 0.082 | alvocidib -0.012 | Tubastatin A -0.14 | [1] -0.041 | defactinib 0.013 | rucaparib -0.077 | [2] -0.073 | encorafenib -0.011 | [3] 0.033

XRCC4 (UniProt Q13426)
inactive: saracatinib 0.042 | sotrastaurin 0.048 | alvocidib -0.025 | Tubastatin A -0.022 | [1] -0.039 | defactinib -0.04 | rucaparib -0.071 | [2] -0.043 | encorafenib 0.017 | [3] 0.021

ZFAND2B (UniProt Q8WV99)
inactive: saracatinib 0.036 | sotrastaurin 0.136 | alvocidib 0.012 | Tubastatin A 0.002 | [1] 0.029 | defactinib 0.01 | rucaparib -0.017 | [2] 0.016 | encorafenib 0.01 | [3] 0.09

YIF1B (UniProt Q5BJH7)
inactive: saracatinib 0.209 | sotrastaurin -0.011 | alvocidib -0.049 | Tubastatin A 0.001 | [1] 0.009 | defactinib 0.076 | rucaparib -0.015 | [2] -0.025 | encorafenib 0.001 | [3] -0.033

YDJC (UniProt A8MPS7)
inactive: saracatinib -0.009 | sotrastaurin 0.001 | alvocidib -0.126 | Tubastatin A 0.02 | [1] 0.042 | defactinib -0.025 | rucaparib -0.044 | [2] 0.011 | encorafenib 0.013 | [3] 0.025

ZFYVE16 (UniProt Q7Z3T8)
inactive: saracatinib -0.005 | sotrastaurin -0.003 | alvocidib -0.058 | Tubastatin A -0.01 | [1] -0.024 | defactinib -0.046 | rucaparib -0.02 | [2] -0.028 | encorafenib -0.007 | [3] -0.015

ZC3H4 (UniProt Q9UPT8)
inactive: saracatinib -0.025 | sotrastaurin 0.043 | alvocidib 0.227 | Tubastatin A 0.057 | [1] -0.015 | defactinib 0.216 | rucaparib 0.267 | [2] 0.042 | encorafenib 0.042 | [3] 0

YAF2 isoform 5 (UniProt Q8IY57)
inactive: saracatinib 0.115 | sotrastaurin -0.082 | alvocidib 0.009 | Tubastatin A 0.026 | [1] -0.067 | defactinib -0.38 | rucaparib 0.099 | [2] 0.139 | encorafenib -0.012 | [3] -0.023

ZCCHC3 (UniProt Q9NUD5)
inactive: saracatinib -0.06 | sotrastaurin -0.017 | alvocidib 0.242 | Tubastatin A 0.045 | [1] -0.008 | defactinib 0.135 | rucaparib 0.328 | [2] 0.002 | encorafenib 0.012 | [3] -0.041

ZEB1 isoform 2 (UniProt P37275)
inactive: saracatinib 0.066 | sotrastaurin 0.064 | alvocidib -0.049 | Tubastatin A 0.043 | [1] -0.14 | defactinib -0.088 | rucaparib -0.101 | [2] -0.138 | encorafenib -0.023 | [3] 0.096

YARS (UniProt P54577)
inactive: saracatinib -0.088 | sotrastaurin -0.133 | alvocidib -0.026 | Tubastatin A 0.018 | [1] 0.024 | defactinib -0.051 | rucaparib 0.156 | [2] 0.046 | encorafenib 0.115 | [3] -0.062

ZC3H14 (UniProt Q6PJT7)
inactive: saracatinib 0.078 | sotrastaurin -0.077 | alvocidib 0.045 | Tubastatin A -0.064 | [1] -0.063 | defactinib 0.117 | rucaparib 0.066 | [2] -0.174 | encorafenib -0.002 | [3] -0.019

YIPF3 (UniProt Q9GZM5)
inactive: saracatinib 0.07 | sotrastaurin 0.007 | alvocidib 0.04 | Tubastatin A -0.024 | [1] -0.007 | defactinib 0.032 | rucaparib -0.056 | [2] -0.038 | encorafenib 0.033 | [3] 0.039
